Results are given in words; binding and its absence hold for the method and conditions named. In cells and extracts the contact can be indirect. Some results given as binding are weak or reduced against the parent protein; the word gives no strength. For part of these data: Tags and fused reporters may be left off the sequences shown. One block for each substance: values may come before it.
How the values were obtained:
[1] = target: T1, TXNIP 174-300 fragment, Flag-tagged (human) (UniProt Q9H3M7); test: co-IP; 293T cells co-transfected with Flag- and HA-tagged plasmids (1.5 ug each), lysed after 48 h; lysate incubated overnight at 4 °C with IP beads pre-loaded with Flag or HA antibody, washed three times, Western blot
T1 sequence: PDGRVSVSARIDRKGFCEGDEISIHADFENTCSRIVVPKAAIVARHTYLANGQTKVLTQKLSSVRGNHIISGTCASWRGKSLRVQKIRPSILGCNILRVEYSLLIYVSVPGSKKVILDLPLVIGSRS

By UniProt entry, the sequences of proteins in these tests, tags left out. Where a name states a change or a piece, a line headed by the entry shows the natural chain unless it says otherwise.
UniProt Q7Z434: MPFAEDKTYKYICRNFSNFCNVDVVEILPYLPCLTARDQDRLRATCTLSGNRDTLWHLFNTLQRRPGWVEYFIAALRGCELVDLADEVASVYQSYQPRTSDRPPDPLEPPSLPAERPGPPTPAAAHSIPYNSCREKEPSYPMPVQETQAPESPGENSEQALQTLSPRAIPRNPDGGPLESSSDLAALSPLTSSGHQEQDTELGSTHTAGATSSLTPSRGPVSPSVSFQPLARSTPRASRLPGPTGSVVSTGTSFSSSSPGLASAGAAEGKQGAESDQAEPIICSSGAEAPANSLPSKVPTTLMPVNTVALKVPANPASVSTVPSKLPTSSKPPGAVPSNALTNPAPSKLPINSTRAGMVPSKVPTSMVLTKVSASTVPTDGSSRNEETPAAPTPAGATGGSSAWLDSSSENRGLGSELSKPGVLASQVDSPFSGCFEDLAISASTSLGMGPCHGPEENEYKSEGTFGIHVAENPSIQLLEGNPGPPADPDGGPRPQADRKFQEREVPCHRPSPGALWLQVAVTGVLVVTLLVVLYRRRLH

[2] = target: T2, human TXNIP-Flag (thioredoxin-interacting protein) (human) (UniProt Q9H3M7); test: as above
T2 sequence: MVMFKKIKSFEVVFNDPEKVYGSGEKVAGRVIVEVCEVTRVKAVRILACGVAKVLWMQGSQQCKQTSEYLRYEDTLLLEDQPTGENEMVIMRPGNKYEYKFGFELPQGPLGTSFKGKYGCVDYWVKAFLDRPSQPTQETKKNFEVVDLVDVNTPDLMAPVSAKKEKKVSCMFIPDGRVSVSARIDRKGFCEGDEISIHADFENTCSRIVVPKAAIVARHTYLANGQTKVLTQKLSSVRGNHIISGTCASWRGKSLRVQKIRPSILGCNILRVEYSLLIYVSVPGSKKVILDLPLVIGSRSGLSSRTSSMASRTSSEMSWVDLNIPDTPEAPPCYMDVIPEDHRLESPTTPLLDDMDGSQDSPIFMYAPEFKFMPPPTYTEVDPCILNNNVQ

[3] = target: T3, humanTXNIP-VN173 (from pBiFC-humanTXNIP-VN173) (human) (UniProt Q9H3M7); test: split reporter; BiFC with Venus fragments VN173 and VC155 in 293T cells, 1000 ng plasmids, imaged by confocal microscopy after 48 h
T3 sequence: T2 sequence

binding [1]: binds
Substance: MAVS 1-180 fragment, HA-tagged (from UniProt Q7Z434 1-180) (domain or fragment)

binding [2]: binds
Substance: MAVS-HA (from UniProt Q7Z434 1-540)

binding [3]: binds
Substance: hMAVS-VC155 (from pBiFC-hMAVS-VC155) (from UniProt Q7Z434 1-540)

Reference: paper PMC12273484
